No constants are given. Whether binding was seen depends on the method and setting. Some results given as binding are weak or reduced against the parent protein; the word gives no strength.
Key:
[1] = target: T1, Lectin-like transcript 1 (LLT1) (human, UniProt Q9UHP7 1-191); assay: flow cytometry on LLT1-transfected K562 cells, against isotype IgG2a
T1 construct: Type II transmembrane protein; In the assays it stood on LLT1-transfected K562 cells or was endogenous on human prostate and breast cancer cell lines and tissues; also called OCIL; CLEC2D
T1 sequence: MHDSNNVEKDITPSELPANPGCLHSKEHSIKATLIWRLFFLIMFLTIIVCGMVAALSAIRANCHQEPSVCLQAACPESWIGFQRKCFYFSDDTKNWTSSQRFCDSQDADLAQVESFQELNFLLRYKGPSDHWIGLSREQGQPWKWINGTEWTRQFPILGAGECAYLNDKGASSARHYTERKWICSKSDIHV

[2] = target: T1, Lectin-like transcript 1 (LLT1); assay: flow cytometry on DU145 prostate cancer cells, against isotype IgG2a

binding [1]: binds | binding [2]: binds
B1: mouse anti-human LLT1 mAb (clone 3G1) (antibody, V domains shown)
VH: EVQLQQSGPELVKPGASVKISCKASGYSFTGNYMHWVKQSPENSLEWIGEINIRTGYISYNQKFKGKATLTVDKSSSTAYMQLKSLTSEESAVYYCTRSAYWGQGTLVTVSA
VL: DIKMTQSPSSMYTSLGERVTITCKASQDIKSYLSWFQQKPGKSPKTLIYRANRLGDGVPSRVSGSGSGQDYSLTIGSLEYEDMGIYYCLQYAEFPRTFGGGTKLEIRR

Source: patent US20190071505A1 (UNIVERSITY OF NORTH TEXAS HEALTH SCIENCE CENTER, published 2019)
